2 molecules from paper doi:10.1101/2025.05.22.655396 can be followed below.

Amino acid sequences for entries named in this document (tags omitted).
UniProt Q07820: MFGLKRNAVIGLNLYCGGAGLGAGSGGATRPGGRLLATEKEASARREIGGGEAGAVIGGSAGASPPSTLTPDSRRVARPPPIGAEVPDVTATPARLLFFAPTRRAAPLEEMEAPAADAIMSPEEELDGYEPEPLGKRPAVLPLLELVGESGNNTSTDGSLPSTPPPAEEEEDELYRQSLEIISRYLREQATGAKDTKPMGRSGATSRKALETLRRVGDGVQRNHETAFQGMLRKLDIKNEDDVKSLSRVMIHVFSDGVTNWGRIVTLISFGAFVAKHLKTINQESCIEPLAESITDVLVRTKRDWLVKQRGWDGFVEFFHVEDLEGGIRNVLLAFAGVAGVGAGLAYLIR
UniProt Q7Z5L9: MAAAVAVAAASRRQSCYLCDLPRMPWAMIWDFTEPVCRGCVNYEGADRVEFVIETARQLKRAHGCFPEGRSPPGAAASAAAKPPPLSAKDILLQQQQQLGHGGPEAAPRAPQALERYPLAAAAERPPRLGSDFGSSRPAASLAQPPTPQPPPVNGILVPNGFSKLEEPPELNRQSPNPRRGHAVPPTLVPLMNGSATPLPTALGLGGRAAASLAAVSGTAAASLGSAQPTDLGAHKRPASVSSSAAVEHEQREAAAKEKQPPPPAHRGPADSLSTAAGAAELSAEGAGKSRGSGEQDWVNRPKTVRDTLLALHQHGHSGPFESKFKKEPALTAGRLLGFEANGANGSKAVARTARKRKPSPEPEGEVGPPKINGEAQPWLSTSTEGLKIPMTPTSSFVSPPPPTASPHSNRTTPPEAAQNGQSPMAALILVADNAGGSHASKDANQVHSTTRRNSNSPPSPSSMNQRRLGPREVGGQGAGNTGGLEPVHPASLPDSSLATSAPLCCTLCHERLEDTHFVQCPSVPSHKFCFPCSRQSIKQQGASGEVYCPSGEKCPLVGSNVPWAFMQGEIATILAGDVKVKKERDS

Results are given in words; binding and its absence hold for the method and conditions named. Binding seen in cells or lysates may run through a third protein. A yes stands for co-enrichment or nearness to the bait. Other partners may have been found.

In the assay the target is MCL1 (human (endogenous in primary AML cells)) (UniProt Q07820). As to the kind of experiment: affinity purification with mass spectrometry.

Turning to “Interferon Regulatory Factor 2 Binding Protein 2 (from UniProt Q7Z5L9 1-587)”, the binding result is on record as “binds”.

B1: acyl-CoA synthetase long-chain family member 1 (enzyme, UniProt P33121 1-698)
chain: MQAHELFRYFRMPELVDFRQYVRTLPTNTLMGFGAFAALTTFWYATRPKPLKPPCDLSMQSVEVAGSGGARRSALLDSDEPLVYFYDDVTTLYEGFQRGIQVSNNGPCLGSRKPDQPYEWLSYKQVAELSECIGSALIQKGFKTAPDQFIGIFAQNRPEWVIIEQGCFAYSMVIVPLYDTLGNEAITYIVNKAELSLVFVDKPEKAKLLLEGVENKLIPGLKIIVVMDAYGSELVERGQRCGVEVTSMKAMEDLGRANRRKPKPPAPEDLAVICFTSGTTGNPKGAMVTHRNIVSDCSAFVKATENTVNPCPDDTLISFLPLAHMFERVVECVMLCHGAKIGFFQGDIRLLMDDLKVLQPTVFPVVPRLLNRMFDRIFGQANTTLKRWLLDFASKRKEAELRSGIIRNNSLWDRLIFHKVQSSLGGRVRLMVTGAAPVSATVLTFLRAALGCQFYEGYGQTECTAGCCLTMPGDWTAGHVGAPMPCNLIKLVDVEEMNYMAAEGEGEVCVKGPNVFQGYLKDPAKTAEALDKDGWLHTGDIGKWLPNGTLKIIDRKKHIFKLAQGEYIAPEKIENIYMRSEPVAQVFVHGESLQAFLIAIVVPDVETLCSWAQKRGFEGSFEELCRNKDVKKAILEDMVRLGKDSGLKPFEQVKGITLHPELFSIDNGLLTPTMKAKRPELRNYFRSQIDDLYSTIKV
B1: the binding result is on record as “binds”.
